This passage reports binding results from publication PMC3330813.

Chains of the proteins cited; added tags and fusions are not shown.
UniProt P24723: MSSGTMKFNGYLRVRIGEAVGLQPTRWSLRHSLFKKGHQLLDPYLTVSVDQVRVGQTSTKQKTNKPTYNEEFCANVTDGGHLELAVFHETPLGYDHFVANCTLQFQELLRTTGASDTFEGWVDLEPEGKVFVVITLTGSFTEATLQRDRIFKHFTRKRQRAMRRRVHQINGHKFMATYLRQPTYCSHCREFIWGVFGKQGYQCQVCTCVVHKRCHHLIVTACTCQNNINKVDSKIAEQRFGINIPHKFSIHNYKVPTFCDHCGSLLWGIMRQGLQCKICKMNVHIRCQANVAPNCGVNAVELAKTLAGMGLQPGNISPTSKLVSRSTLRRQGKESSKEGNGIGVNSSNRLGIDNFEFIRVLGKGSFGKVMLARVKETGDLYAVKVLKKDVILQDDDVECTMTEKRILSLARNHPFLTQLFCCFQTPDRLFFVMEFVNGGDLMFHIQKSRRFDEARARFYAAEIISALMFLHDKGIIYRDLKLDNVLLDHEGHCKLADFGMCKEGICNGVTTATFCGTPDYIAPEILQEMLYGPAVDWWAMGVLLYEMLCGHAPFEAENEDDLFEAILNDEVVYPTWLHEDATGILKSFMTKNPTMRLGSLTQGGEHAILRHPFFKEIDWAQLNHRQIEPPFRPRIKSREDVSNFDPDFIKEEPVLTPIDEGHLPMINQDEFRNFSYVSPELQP

Results are given in words; binding and its absence hold for the method and conditions named. In cells and extracts the contact can be indirect. Some binding calls cover weakened binding; strength is not graded here.

For assay [1], the target named is T1, annexin7 (ANX7) (human (endogenous in S2-013)) (UniProt P20073).
T1 sequence: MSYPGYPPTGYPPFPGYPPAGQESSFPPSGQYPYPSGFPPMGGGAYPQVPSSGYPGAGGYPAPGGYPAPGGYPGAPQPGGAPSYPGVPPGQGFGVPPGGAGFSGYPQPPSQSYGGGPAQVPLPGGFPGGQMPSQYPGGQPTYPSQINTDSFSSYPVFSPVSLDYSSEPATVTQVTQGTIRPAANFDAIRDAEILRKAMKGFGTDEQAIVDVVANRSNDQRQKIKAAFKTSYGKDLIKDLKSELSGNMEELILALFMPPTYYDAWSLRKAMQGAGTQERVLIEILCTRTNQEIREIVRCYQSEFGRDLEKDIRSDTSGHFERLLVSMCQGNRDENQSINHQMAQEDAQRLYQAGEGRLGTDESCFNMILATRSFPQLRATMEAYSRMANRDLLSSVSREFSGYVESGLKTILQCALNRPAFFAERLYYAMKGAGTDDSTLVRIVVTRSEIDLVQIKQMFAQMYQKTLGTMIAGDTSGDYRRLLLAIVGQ
Nature of the assay: co-IP; endogenous proteins, S2-013 cells, precipitated with anti-ANX7 or anti-phospho-PKCα antibody, Western blot with antibodies against ANX7, phospho-PKCα and phospho-PKCη.

Assay [2] deals with T2, binder of Arl two (BART) (human (endogenous in S2-013)) (UniProt Q9Y2Y0).
T2 sequence: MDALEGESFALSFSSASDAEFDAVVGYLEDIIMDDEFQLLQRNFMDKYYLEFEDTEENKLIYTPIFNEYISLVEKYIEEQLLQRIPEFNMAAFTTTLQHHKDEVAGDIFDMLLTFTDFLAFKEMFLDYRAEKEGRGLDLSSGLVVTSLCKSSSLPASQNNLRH
Description: co-IP; endogenous proteins, S2-013 lysate, precipitated with anti-BART or anti-ANX7 antibody, Western blot; also cells treated with PMA with or without calphostin C or chelerythrine chloride (BART IP).

On to “Phospho-PKCη (from UniProt P24723 1-683) (enzyme)”, for which the binding entry in assay [1] was “no binding”.

Take “phosphorylated PKCα (from UniProt P17252 1-672) (enzyme)”: the binding result in assay [1] is recorded as “binds”.

B1: annexin7 (ANX7) (protein, UniProt P20073-1 1-488)
chain: MSYPGYPPTGYPPFPGYPPAGQESSFPPSGQYPYPSGFPPMGGGAYPQVPSSGYPGAGGYPAPGGYPAPGGYPGAPQPGGAPSYPGVPPGQGFGVPPGGAGFSGYPQPPSQSYGGGPAQVPLPGGFPGGQMPSQYPGGQPTYPSQINTDSFSSYPVFSPVSLDYSSEPATVTQVTQGTIRPAANFDAIRDAEILRKAMKGFGTDEQAIVDVVANRSNDQRQKIKAAFKTSYGKDLIKDLKSELSGNMEELILALFMPPTYYDAWSLRKAMQGAGTQERVLIEILCTRTNQEIREIVRCYQSEFGRDLEKDIRSDTSGHFERLLVSMCQGNRDENQSINHQMAQEDAQRLYQAGEGRLGTDESCFNMILATRSFPQLRATMEAYSRMANRDLLSSVSREFSGYVESGLKTILQCALNRPAFFAERLYYAMKGAGTDDSTLVRIVVTRSEIDLVQIKQMFAQMYQKTLGTMIAGDTSGDYRRLLLAIVGQ
For the molecule B1, in assay [2], the binding entry is reported as “binds”.
